# Laboratory results taken from the supplement of paper PMC8728848.
# The list shows a part of the results.
# B1: S100A12 (Homo sapiens), P80511 (protein)
# chain: MTKLEEHLEGIVNIFHQYSVRKGHFDTLSKGELKQLLTKELANTIKNIKDKAVIDEIFQGLDANQDEQVDFQEFISLVAIALKAAHYHTHKE
# How the values were obtained:
# Test in all cases: glycan array binding signal (z-score within array); higher = stronger binding
# Details in all cases: glycan notation: IUPAC condensed, linker removed
# Fuc(a1-2)Gal = molecular target: Fuc(a1-2)Gal
# Procedure, shortened: (§1)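 Glycan array data were curated from 3228 arrays in the Consortium for Functional Glycomics database and kept only where the protein sequence was available. Glycan names were converted to IUPAC-condensed notation, and columns mapping to the same glycan were averaged. The binding signal is a within-array Z-score, averaged across arrays of the same protein sequence at different concentrations or buffers and across linkers. Negative Z-scores can be read as non-binding.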
# Fuc(a1-2)Gal(b1-3)GalNAc = molecular target: Fuc(a1-2)Gal(b1-3)GalNAc
# Procedure, shortened: as §1
# [1] = molecular target: Fuc(a1-2)Gal(b1-3)GalNAc(b1-3)Gal
# Procedure, shortened: as §1
# [2] = molecular target: Fuc(a1-2)Gal(b1-3)GalNAc(b1-3)Gal(a1-4)Gal(b1-4)Glc
# Procedure, shortened: as §1
# [3] = molecular target: Fuc(a1-2)Gal(b1-3)GalNAc(b1-3)Gal(b1-4)Glc
# Procedure, shortened: as §1
# [4] = molecular target: Fuc(a1-2)Gal(b1-3)GalNAc(b1-4)[Neu5Ac(a2-3)]Gal(b1-4)Glc
# Procedure, shortened: as §1
# Fuc(a1-2)Gal(b1-3)GlcNAc = molecular target: Fuc(a1-2)Gal(b1-3)GlcNAc
# Procedure, shortened: as §1
# [5] = molecular target: Fuc(a1-2)Gal(b1-3)GlcNAc(b1-3)Gal(b1-4)Glc
# Procedure, shortened: as §1
# [6] = molecular target: Fuc(a1-2)Gal(b1-3)[Fuc(a1-4)]GlcNAc
# Procedure, shortened: as §1
# Fuc(a1-2)Gal(b1-4)Glc = molecular target: Fuc(a1-2)Gal(b1-4)Glc
# Procedure, shortened: as §1
# Fuc(a1-2)Gal(b1-4)Glc6S = molecular target: Fuc(a1-2)Gal(b1-4)Glc6S
# Procedure, shortened: as §1
# Fuc(a1-2)Gal(b1-4)GlcNAc = molecular target: Fuc(a1-2)Gal(b1-4)GlcNAc
# Procedure, shortened: as §1
# [7] = molecular target: Fuc(a1-2)Gal(b1-4)GlcNAc(b1-3)Gal(b1-4)GlcNAc
# Procedure, shortened: as §1
# [8] = molecular target: Fuc(a1-2)Gal(b1-4)GlcNAc(b1-3)Gal(b1-4)GlcNAc(b1-3)Gal(b1-4)GlcNAc
# Procedure, shortened: as §1
# [9] = molecular target: Fuc(a1-2)Gal(b1-4)GlcNAc6S
# Procedure, shortened: as §1
# [10] = molecular target: Fuc(a1-2)Gal(b1-4)[Fuc(a1-3)]GalNAc(b1-3)Gal(b1-4)[Fuc(a1-3)]GlcNAc
# Procedure, shortened: as §1
# [11] = molecular target: Fuc(a1-2)Gal(b1-4)[Fuc(a1-3)]GalNAc(b1-3)Gal(b1-4)[Fuc(a1-3)]GlcNAc(b1-3)Gal(b1-4)[Fuc(a1-3)]GalNAc
# Procedure, shortened: as §1
# [12] = molecular target: Fuc(a1-2)Gal(b1-4)[Fuc(a1-3)]GlcNAc
# Procedure, shortened: as §1
# [13] = molecular target: Fuc(a1-2)Gal(b1-4)[Fuc(a1-3)]GlcNAc(b1-3)Gal(b1-4)[Fuc(a1-3)]GlcNAc
# Procedure, shortened: as §1
# [14] = molecular target: Fuc(a1-2)Gal(b1-4)[Fuc(a1-3)]GlcNAc(b1-3)Gal(b1-4)[Fuc(a1-3)]GlcNAc(b1-3)Gal(b1-4)[Fuc(a1-3)]GlcNAc
# Procedure, shortened: as §1
# Fuc(a1-2)Gal6S(b1-4)Glc = molecular target: Fuc(a1-2)Gal6S(b1-4)Glc
# Procedure, shortened: as §1
# [15] = molecular target: Fuc(a1-2)Gal6S(b1-4)Glc6S
# Procedure, shortened: as §1
# [16] = molecular target: Fuc(a1-2)Gal6S(b1-4)GlcNAc
# Procedure, shortened: as §1
# Fuc(a1-2)GlcNAc = molecular target: Fuc(a1-2)GlcNAc
# Procedure, shortened: as §1
# Fuc(a1-2)[Gal(a1-3)]Gal = molecular target: Fuc(a1-2)[Gal(a1-3)]Gal
# Procedure, shortened: as §1
# [17] = molecular target: Fuc(a1-2)[Gal(a1-3)]Gal(b1-3)GlcNAc
# Procedure, shortened: as §1
# [18] = molecular target: Fuc(a1-2)[Gal(a1-3)]Gal(b1-4)Glc
# Procedure, shortened: as §1
# [19] = molecular target: Fuc(a1-2)[Gal(a1-3)]Gal(b1-4)GlcNAc
# Procedure, shortened: as §1
# [20] = molecular target: Fuc(a1-2)[Gal(a1-3)]Gal(b1-4)[Fuc(a1-3)]GlcNAc
# Procedure, shortened: as §1
# [21] = molecular target: Fuc(a1-2)[Gal(a1-4)]Gal(b1-4)GalNAc
# Procedure, shortened: as §1
# [22] = molecular target: Fuc(a1-2)[Gal(a1-4)]Gal(b1-4)GlcNAc
# Procedure, shortened: as §1
# [23] = molecular target: Fuc(a1-2)[GalNAc(a1-3)]Gal
# Procedure, shortened: as §1
# [24] = molecular target: Fuc(a1-2)[GalNAc(a1-3)]Gal(b1-3)GlcNAc
# Procedure, shortened: as §1
# [25] = molecular target: Fuc(a1-2)[GalNAc(a1-3)]Gal(b1-4)Glc
# Procedure, shortened: as §1
# [26] = molecular target: Fuc(a1-2)[GalNAc(a1-3)]Gal(b1-4)GlcNAc
# Procedure, shortened: as §1
# [27] = molecular target: Fuc(a1-2)[GalNAc(a1-3)]Gal(b1-4)[Fuc(a1-3)]GlcNAc
# Procedure, shortened: as §1
# [28] = molecular target: Fuc(a1-2)[GalNAc(a1-4)]Gal(b1-4)GlcNAc
# Procedure, shortened: as §1
# [29] = molecular target: Fuc(a1-2)[GalNAc(b1-3)]Gal
# Procedure, shortened: as §1
# Fuc(a1-3)GlcNAc = molecular target: Fuc(a1-3)GlcNAc
# Procedure, shortened: as §1
# [30] = molecular target: Fuc(a1-3)[Gal(b1-4)]Glc6S
# Procedure, shortened: as §1
# [31] = molecular target: Fuc(a1-3)[Gal(b1-4)]GlcNAc
# Procedure, shortened: as §1
# [32] = molecular target: Fuc(a1-3)[Gal(b1-4)]GlcNAc(b1-3)Gal(b1-3)[Fuc(a1-4)]GlcNAc
# Procedure, shortened: as §1
# [33] = molecular target: Fuc(a1-3)[Gal(b1-4)]GlcNAc(b1-4)Gal(b1-4)[Fuc(a1-3)]GlcNAc
# Procedure, shortened: as §1
# [34] = molecular target: Fuc(a1-3)[Gal(b1-4)]GlcNAc(b1-4)Gal(b1-4)[Fuc(a1-3)]GlcNAc(b1-4)Gal(b1-4)[Fuc(a1-3)]GlcNAc
# Procedure, shortened: as §1
# [35] = molecular target: Fuc(a1-3)[Gal(b1-4)]GlcNAc6S
# Procedure, shortened: as §1
binder,measurement,setting,value
B1,glycan array binding signal (z-score),Fuc(a1-2)Gal,-0.19
same,glycan array binding signal (z-score),Fuc(a1-2)Gal(b1-3)GalNAc,-0.479
same,glycan array binding signal (z-score),[1],1.87
same,glycan array binding signal (z-score),[2],-0.217
same,glycan array binding signal (z-score),[3],-0.391
same,glycan array binding signal (z-score),[4],-0.259
same,glycan array binding signal (z-score),Fuc(a1-2)Gal(b1-3)GlcNAc,-0.69
same,glycan array binding signal (z-score),[5],-0.839
same,glycan array binding signal (z-score),[6],-0.697
same,glycan array binding signal (z-score),Fuc(a1-2)Gal(b1-4)Glc,-0.842
same,glycan array binding signal (z-score),Fuc(a1-2)Gal(b1-4)Glc6S,-0.59
same,glycan array binding signal (z-score),Fuc(a1-2)Gal(b1-4)GlcNAc,-0.748
same,glycan array binding signal (z-score),[7],-0.73
same,glycan array binding signal (z-score),[8],0.096
same,glycan array binding signal (z-score),[9],-0.51
same,glycan array binding signal (z-score),[10],-0.48
same,glycan array binding signal (z-score),[11],-0.595
same,glycan array binding signal (z-score),[12],-0.599
same,glycan array binding signal (z-score),[13],-0.821
same,glycan array binding signal (z-score),[14],0.343
same,glycan array binding signal (z-score),Fuc(a1-2)Gal6S(b1-4)Glc,-0.521
same,glycan array binding signal (z-score),[15],0.472
same,glycan array binding signal (z-score),[16],-0.347
same,glycan array binding signal (z-score),Fuc(a1-2)GlcNAc,-0.615
same,glycan array binding signal (z-score),Fuc(a1-2)[Gal(a1-3)]Gal,-0.758
same,glycan array binding signal (z-score),[17],-0.548
same,glycan array binding signal (z-score),[18],-0.262
same,glycan array binding signal (z-score),[19],-0.418
same,glycan array binding signal (z-score),[20],0.104
same,glycan array binding signal (z-score),[21],-0.138
same,glycan array binding signal (z-score),[22],-0.056
same,glycan array binding signal (z-score),[23],-0.376
same,glycan array binding signal (z-score),[24],-0.554
same,glycan array binding signal (z-score),[25],-0.323
same,glycan array binding signal (z-score),[26],-0.513
same,glycan array binding signal (z-score),[27],-0.154
same,glycan array binding signal (z-score),[28],-0.766
same,glycan array binding signal (z-score),[29],-1.17
same,glycan array binding signal (z-score),Fuc(a1-3)GlcNAc,-0.912
same,glycan array binding signal (z-score),[30],-0.027
same,glycan array binding signal (z-score),[31],-0.769
same,glycan array binding signal (z-score),[32],-0.592
same,glycan array binding signal (z-score),[33],0.602
same,glycan array binding signal (z-score),[34],-0.612
same,glycan array binding signal (z-score),[35],-0.53

# Exported with tabs: entries from further up
binder	measurement	setting	value
B1	glycan array binding signal (z-score)	[30]	-0.027
same	glycan array binding signal (z-score)	[31]	-0.769
